These results are taken from patent US20040229366A1 (University of California, published 2004).

In assay [1] the target is T1, CAL bait (GAL4 (1-147) fused to the intact CAL coding region in pBI-880) (Arabidopsis thaliana).
T1 construct: range 1-147; also called CAULIFLOWER; full-length CAL cDNA as bait
Briefly: yeast two-hybrid library screen with full-length CAL bait, HIS3 and lacZ reporters. How it is done: Yeast two-hybrid screens were performed to identify candidate genes whose products interact with AP1 and CAL. The two-hybrid library screens were performed in the YPB2 strain [MATa ara3 his3 ade2 lys2 trp1 leu2, 112 can^r gal4 gal80 LYS2::GAL1-HIS3, URA3::(GAL1UAS17mers)-lacZ]. Yeast were transformed using a modified version of the lithium acetate method of Schiest1 and Gietz, Curr. Genet. 16, 339-346 (1989).
The two-hybrid cDNA expression library was constructed in the pBI771 (prey) vector using tissue of whole plants at different stages. The bait constructs were prepared by inserting the intact CAL coding region and a truncated form of AP1 into the pBI-880 vector (a variant of pPC62 described in Chevray and Nathans Proc. Natl. Acad. Sci USA 5789-5793 (1992); Kohalmi et al., Plant. Mol. Biol. Man. M1, 1-30 (1998)) by inserting the corresponding coding region in-frame at the 3′ end of the GAL4 (1-147) sequence contained in the centromere LEU2 plasmid. These baits tested negative for the ability to activate transcription of both reporters, alone as well as in combination with each the prey vector and an inert control prey, the Arabidopsis cruciferin seed storage protein.
The transformants were selected on supplemented synthetic dextrose medium lacking leucine, tryptophan and histidine but containing 5 mM 3-amino-1,2,4-triazole. […]

The target in assay [2] is T1, CAL bait (GAL4 (1-147) fused to the …). In words: yeast two-hybrid retest with CAL bait. An excerpt: To confirm the specificity of the observed interactions, the longest and shortest clone of each class was transformed back into a yeast strain that contained either the CAL bait, the bait vector, or an inert control bait, cruciferin. The strains containing the CAL bait tested positive for both B-Gal activity and HIS prototrophy. The strains containing the bait vector or the cruciferin bait were negative in both assays, as they were not able to grow on plates lacking histidine and the yeast colonies were completely white in the B-Gal assay.

B1: SUPPRESSOR OF CO OVEREXPRESSION 1 (SOC1) clones isolated in the CAL two-hybrid screen (seven clones) (other)
chain: MVRGKTQMKRIENATSRQVTFSKRRNGLLKKAFELSVLCDAEVSLIIFSPKGKLYEFASSNMQDTIDRYLRHTKDRVSTKPVSEENMQHLKYEAANMMKKIEQLEASKRKLLGEGIGTCSIEELQQIEQQLEKSVKCIRARKTQVFKEQIEQLKQKEKALAAENEKLSEKWGSHESEVWSNKNQESTGRGDEESSPSSEVETQLFIGLPCSSRK
notes: Group of seven library clones with different 5' ends; also called AGL20; second class; not shown: fusion partner encoded by prey vector pBI771
For B1, the binding result in assay [1] is on record as “binds”.

B2: longest SOC1 clone from the CAL two-hybrid screen (other)
chain: MVRGKTQMKRIENATSRQVTFSKRRNGLLKKAFELSVLCDAEVSLIIFSPKGKLYEFASSNMQDTIDRYLRHTKDRVSTKPVSEENMQHLKYEAANMMKKIEQLEASKRKLLGEGIGTCSIEELQQIEQQLEKSVKCIRARKTQVFKEQIEQLKQKEKALAAENEKLSEKWGSHESEVWSNKNQESTGRGDEESSPSSEVETQLFIGLPCSSRK
notes: also called AGL20; longest clone of each class; not shown: fusion partner encoded by prey vector pBI771
As for B2, the binding result in assay [2] is “binds”.
